# Data as given in PubChem BioAssay AID504793 (Drosophila RNAi Screening Center, 2011)
# Test: 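Genes required for cells to halt at G2/M after double-strand DNA breaks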 (primary screen)
# System: Drosophila S2R+ cells
# Knock-down reagent: long dsRNA against Drosophila genes, about 0.25 µg dsRNA per well
# Time to read-out: 4 days of dsRNA, then 4 hours of drug before read-out
# Treatment: doxorubicin 0.5 µM for 4 hours to cause double-strand breaks, in cells also given a low, harmless dose of dsRNA against nbs to sensitise the assay
# Measurement: 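Mitotic index as the number of phospho-histone H3-positive cells in each well following doxorubicin, given as raw counts without normalisation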
# Scale: mitotic cells: higher = more cells in mitosis, weaker G2 arrest
# Call rule: 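Genes are called active only when high mitotic counts were reproduced with independent dsRNAs and mitosis was checked for delay without damage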
# Meaning of the calls: active = confirmed in follow-up tests; inactive = not confirmed
# The screen tested about 23,000 reagents; below is an unselected part of those with a known target gene and a result. In the full data, 62 (0.27%) got an active call. 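Calls come from follow-up tests whose scores are not deposited, so confirmed genes may have low counts here; counts are not normalised per plate.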 Raw values vary from plate to plate and are shown uncorrected. The numbers tell different reagents against one gene apart. A plus sign joins genes that one reagent is predicted to hit.
Target gene,reagent no.,"mitotic cells, replicate 1","mitotic cells, replicate 2",activity call
CG7707,1,3,,inactive
Mov10 (Mov10 RISC complex RNA helicase),1,9,,inactive
Atu (Another transcription unit),1,2,,inactive
CG2641,1,4,,inactive
CG4278,1,9,,inactive
Ssl (Suppressor of Stellate-like),1,5,,inactive
Ssl (Suppressor of Stellate-like),2,6,,inactive
Pex13 (Peroxin 13),1,5,,inactive
CG13008,1,10,,inactive
CG13008,2,15,,inactive
CG13622,1,14,,inactive
CG13622,2,2,,inactive
Mes2 (Mesoderm-expressed 2),1,7,,inactive
Mes2 (Mesoderm-expressed 2),2,4,7,inactive
CG3706,1,10,,inactive
synr (sayonara),1,10,,inactive
gl (glass),1,3,,inactive
CG32050 (retired record),1,4,,inactive
CG32050 (retired record),2,9,,inactive
IntS8 (Integrator 8),1,5,,inactive
Obp57c + Obp57b,1,10,,inactive
Obp57c + Obp57b,2,8,,inactive
Gk2 (Glycerol kinase 2),1,5,,inactive
hpRNA:CR32205 (hairpin RNA:CR32205),1,8,,inactive
CG9393,1,9,,inactive
CG13850,1,6,,inactive
CG8613,1,11,,inactive
CG8613,2,7,,inactive
CG14573,1,5,,inactive
CG14573,2,10,,inactive
CG13130 (retired record),1,13,,inactive
CG13130 (retired record),2,6,,inactive
CG17047,1,3,,inactive
Sox21b,1,14,,inactive
Sox21b,2,5,,inactive
fdl (fused lobes),1,5,,inactive
fdl (fused lobes),2,2,,inactive
Cyp316a1 (Cytochrome P450 316a1),1,6,,inactive
Cyp316a1 (Cytochrome P450 316a1),2,5,,inactive
CG16825,1,4,,inactive
CG15115,1,8,,inactive
CG7953,1,3,,inactive
CG1532,1,4,,inactive
CG32452,1,4,,inactive
CG32452,2,5,,inactive
CG32452,3,5,,inactive
spz3 (spatzle 3),1,1,,inactive
spz3 (spatzle 3),2,3,,inactive
Sry-beta (Serendipity beta),1,7,,inactive
Sry-beta (Serendipity beta),2,7,,inactive
igl (igloo),1,7,,inactive
igl (igloo),2,6,,inactive
didum (dilute class unconventional myosin),1,5,,inactive
Hacd2 (3-hydroxyacyl-CoA dehydratase 2),1,8,,inactive
CG7557,1,9,,inactive
CG7557,2,6,,inactive
esc (extra sexcombs),1,2,,inactive
esc (extra sexcombs),2,7,,inactive
CG34164 + RpL7-like,1,4,,inactive
CG42748,1,8,,inactive
CG42748,2,6,,inactive
CG42748,3,5,,inactive
CG42748,4,6,,inactive
CG42299 + CG42300,1,16,,inactive
CG42299 + CG42300,2,5,,inactive
Gr22b (Gustatory receptor 22b),1,19,,inactive
HSPBAP1 (HSPB1 associated protein 1),1,11,,inactive
Optix,1,9,,inactive
Optix,2,4,,inactive
Optix,3,11,,inactive
Optix,4,5,,inactive
CG2901,1,13,,inactive
CG17350,1,10,,inactive
Cpr76Bb (Cuticular protein 76Bb),1,4,,inactive
Cpr76Bb (Cuticular protein 76Bb),2,9,,inactive
Cpr76Bb (Cuticular protein 76Bb),3,4,,inactive

Ordered by “mitotic cells, replicate 1” (lowest first): some entries from above
Target gene,reagent no.,"mitotic cells, replicate 1","mitotic cells, replicate 2",activity call
esc (extra sexcombs),1,2,,inactive
CG34164 + RpL7-like,1,4,,inactive
CG42748,3,5,,inactive
CG7557,2,6,,inactive
CG42748,2,6,,inactive
esc (extra sexcombs),2,7,,inactive
CG42748,1,8,,inactive
